In this experiment the target is HA-Broi (first 202 residues of the Bro1 domain of Alix) (human) (UniProt Q8WUM4). Kind of experiment: co-IP; 293T cells co-transfected with HA-Alix or Alix fragments and FLAG-tagged CHMP4A, CHMP4B, CHMP4C or MAP/RabGAPLP; RIPA lysate; anti-HA antibody-conjugated beads; blot with anti-HA and anti-Flag.

Chains of the proteins cited; added tags and fusions are not shown. Residues count along the entry.
UniProt Q8WUM4, residues 1-202: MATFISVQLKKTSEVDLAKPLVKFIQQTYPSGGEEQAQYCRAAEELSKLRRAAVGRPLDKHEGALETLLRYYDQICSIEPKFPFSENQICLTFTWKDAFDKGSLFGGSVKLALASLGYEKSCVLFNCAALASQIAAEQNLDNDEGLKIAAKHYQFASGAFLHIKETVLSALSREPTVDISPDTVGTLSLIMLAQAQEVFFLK

No constants are given. Whether binding was seen depends on the method and setting. Binding seen in cells or lysates may run through a third protein. Some binding calls cover weakened binding; strength is not graded here. Where a sequence is shown, tags or fusion partners need not be part of it.

B1: FLAG-CHMP4A (protein, UniProt Q9BY43 1-222)
chain: MSGLGRLFGKGKKEKGPTPEEAIQKLKETEKILIKKQEFLEQKIQQELQTAKKYGTKNKRAALQALRRKKRFEQQLAQTDGTLSTLEFQREAIENATTNAEVLRTMELAAQSMKKAYQDMDIDKVDELMTDITEQQEVAQQISDAISRPMGFGDDVDEDELLEELEELEQEELAQELLNVGDKEEEPSVKLPSVPSTHLPAGPAPKVDEDEEALKQLAEWVS
Consider B1, for which the binding entry was “no binding”.

B2: FLAG-CHMP4B (protein, UniProt Q9H444 1-224)
chain: MSVFGKLFGAGGGKAGKGGPTPQEAIQRLRDTEEMLSKKQEFLEKKIEQELTAAKKHGTKNKRAALQALKRKKRYEKQLAQIDGTLSTIEFQREALENANTNTEVLKNMGYAAKAMKAAHDNMDIDKVDELMQDIADQQELAEEISTAISKPVGFGEEFDEDELMAELEELEQEELDKNLLEISGPETVPLPNVPSIALPSKPAKKKEEEDDDMKELENWAGSM
For B2, the binding entry is on record as “no binding”.

B3: FLAG-MAP/RabGAPLP (protein, UniProt Q96HU1-1 1-749)
chain: MSGSHTPACGPFSALTPSIWPQEILAKYTQKEESAEQPEFYYDEFGFRVYKEEGDEPGSSLLANSPLMEDAPQRLRWQAHLEFTHNHDVGDLTWDKIAVSLPRSEKLRSLVLAGIPHGMRPQLWMRLSGALQKKRNSELSYREIVKNSSNDETIAAKQIEKDLLRTMPSNACFASMGSIGVPRLRRVLRALAWLYPEIGYCQGTGMVAACLLLFLEEEDAFWMMSAIIEDLLPASYFSTTLLGVQTDQRVLRHLIVQYLPRLDKLLQEHDIELSLITLHWFLTAFASVVDIKLLLRIWDLFFYEGSRVLFQLTLGMLHLKEEELIQSENSASIFNTLSDIPSQMEDAELLLGVAMRLAGSLTDVAVETQRRKHLAYLIADQGQLLGAGTLTNLSQVVRRRTQRRKSTITALLFGEDDLEALKAKNIKQTELVADLREAILRVARHFQCTDPKNCSVELTPDYSMESHQRDHENYVACSRSHRRRAKALLDFERHDDDELGFRKNDIITIVSQKDEHCWVGELNGLRGWFPAKFVEVLDERSKEYSIAGDDSVTEGVTDLVRGTLCPALKALFEHGLKKPSLLGGACHPWLFIEEAAGREVERDFASVYSRLVLCKTFRLDEDGKVLTPEELLYRAVQSVNVTHDAVHAQMDVKLRSLICVGLNEQVLHLWLEVLCSSLPTVEKWYQPWSFLRSPGWVQIKCELRVLCCFAFSLSQDWELPAKREAQQPLKEGVRDMLVKHHLFSWDVDG
In the case of B3, the binding entry is listed as “binds”.

B4: FLAG-CHMP4C (protein, UniProt Q96CF2 1-233)
chain: MSKLGKFFKGGGSSKSRAAPSPQEALVRLRETEEMLGKKQEYLENRIQREIALAKKHGTQNKRAALQALKRKKRFEKQLTQIDGTLSTIEFQREALENSHTNTEVLRNMGFAAKAMKSVHENMDLNKIDDLMQEITEQQDIAQEISEAFSQRVGFGDDFDEDELMAELEELEQEELNKKMTNIRLPNVPSSSLPAQPNRKPGMSSTARRSRAASSQRAEEEDDDIKQLAAWAT
As for B4, the binding entry is reported as “no binding”.

The record behind these values is article PMC2651531.
